This is one part of the list. Repeats in this data set agree poorly, so a single value says little.
Target: HuR (ELAVL1) - TNFalpha ARE RNA complex (UniProt Q15717)
Test: AlphaScreen HuR-RNA complex signal Z-score relative to positive controls (secondary screen) (Z-score (SD units of positive control)); higher = more complex signal
Details: screen stage: secondary re-screen

Sequences of proteins named here, by UniProt entry; tags and fusion partners are left off.
UniProt Q15717, whole entry: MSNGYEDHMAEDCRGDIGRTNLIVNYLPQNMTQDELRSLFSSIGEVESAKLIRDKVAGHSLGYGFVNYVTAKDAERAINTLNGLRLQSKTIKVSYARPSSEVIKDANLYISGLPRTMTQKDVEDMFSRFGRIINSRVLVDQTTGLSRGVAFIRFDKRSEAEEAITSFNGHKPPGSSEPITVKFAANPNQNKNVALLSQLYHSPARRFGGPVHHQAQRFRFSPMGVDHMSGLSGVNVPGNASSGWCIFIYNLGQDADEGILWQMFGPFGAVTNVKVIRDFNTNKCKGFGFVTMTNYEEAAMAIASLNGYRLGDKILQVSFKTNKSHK

| Structure (SMILES) | AlphaScreen HuR-RNA complex signal Z-score |
| --- | --- |
| C[C@@H]1C[C@H]2[C@@H]3CCC4=CC(=O)C=C[C@]4(C)[C@@]3(F)[C@@H](O)C[C@]2(C)[C@@]1(O)C(=O)COP(=O)(O)O | 0.717 |
| CC(C)=CCC[C@@H](C)[C@@H]1CC[C@]2(C)C3=C(CC[C@@]12C)[C@@]1(C)CC[C@H](O)C(C)(C)[C@@H]1CC3 | 1.65 |
| C[C@]12CC[C@@H]3c4ccc(O)cc4CC[C@H]3[C@@H]1CCC2=O | 0.681 |
| CCc1ccc2c(O)c3c(cc2c1C(=O)OC)C(=O)c1c(O)ccc(O)c1C3=O | 0.0835 |
| C[C@H]1c2cccc(O)c2C(=O)C2=C(O)[C@]3(O)C(=O)C(C(N)=O)=C(O)[C@@H](N(C)C)[C@@H]3[C@@H](O)[C@@H]21 | 1.21 |
| CN(C)CCCO[C@@H]1[C@H]2OC(C)(C)O[C@H]2O[C@@H]1[C@H](O)CO | 1.08 |
| NC(=O)N1c2ccccc2CC(=O)c2ccccc21 | 2.3 |
| C[C@@H]1C[C@H]2[C@@H]3CCC4=CC(=O)C=C[C@]4(C)[C@@]3(F)[C@@H](O)C[C@]2(C)[C@@]1(O)C(=O)CO | 1.36 |
| CC[C@H]1OC(=O)C[C@@H](O)[C@H](C)[C@@H](O[C@@H]2O[C@H](C)[C@@H](O)[C@H](N(C)C)[C@H]2O)[C@@H](CCN2C[C@H](C)C[C@H](C)C2)C[C@@H](C)C(=O)/C=C/C(C)=C/[C@@H]1CO[C@@H]1O[C@H](C)[C@@H](O)[C@@H](OC)[C@H]1OC | -4.5 |
| CC(C)=CCc1c2c(c3occ(-c4ccc(O)cc4)c(=O)c3c1O)C=CC(C)(C)O2 | -0.0554 |
| CCCC(=O)Nc1ccc(OCC(O)CNC(C)C)c(C(C)=O)c1 (configuration not stated) | 1.86 |
| OCCc1ccccc1 | 0.0775 |
| OC[C@@H](O)[C@@H](O)[C@H](O)[C@@H](O)CO | 1.05 |
| CC(=O)N(O)CCCCCNC(=O)CCC(=O)N(O)CCCCCNC(=O)CCC(=O)N(O)CCCCCN | 1.48 |
| C[C@H]1COc2c(N3CCN(C)CC3)c(F)cc3c(=O)c(C(=O)O)cn1c23 | 2.11 |
| O=C1c2c(O)ccc(O)c2C(=O)c2c(NCCNCCO)ccc(NCCNCCO)c21 | -3.08 |
| OCCN1C[C@H](O)[C@@H](O)[C@H](O)[C@H]1CO | 0.754 |
| CCCCCCCCCCCCCCCC(=O)OC[C@H](O)[C@H]1OC(=O)C(O)=C1O | -0.265 |
| COC(=O)C1=C(C)NC(C)=C(C(=O)OC)C1c1ccccc1[N+](=O)[O-] | 1.05 |

A draw from above in order of formula weight, rising.

| Structure (SMILES) | AlphaScreen HuR-RNA complex signal Z-score |
| --- | --- |
| OCCc1ccccc1 | 0.0775 |
| NC(=O)N1c2ccccc2CC(=O)c2ccccc21 | 2.3 |
| C[C@]12CC[C@@H]3c4ccc(O)cc4CC[C@H]3[C@@H]1CCC2=O | 0.681 |
| CCCC(=O)Nc1ccc(OCC(O)CNC(C)C)c(C(C)=O)c1 (configuration not stated) | 1.86 |
| CC(C)=CCc1c2c(c3occ(-c4ccc(O)cc4)c(=O)c3c1O)C=CC(C)(C)O2 | -0.0554 |
| CC[C@H]1OC(=O)C[C@@H](O)[C@H](C)[C@@H](O[C@@H]2O[C@H](C)[C@@H](O)[C@H](N(C)C)[C@H]2O)[C@@H](CCN2C[C@H](C)C[C@H](C)C2)C[C@@H](C)C(=O)/C=C/C(C)=C/[C@@H]1CO[C@@H]1O[C@H](C)[C@@H](O)[C@@H](OC)[C@H]1OC | -4.5 |

Continuation:

| Structure (SMILES) | AlphaScreen HuR-RNA complex signal Z-score |
| --- | --- |
| Cc1ccc(/C(=C\CN2CCCC2)c2ccccn2)cc1 | 1.25 |
| CC1CC(OC(=O)c2ccccc2O)CC(C)(C)C1 (configuration not stated) | 2.27 |
| CCCCCCc1ccc(O)cc1O.Nc1c2ccccc2nc2ccccc12 | 1.12 |
| CCCN(CCC)S(=O)(=O)c1ccc(C(=O)O)cc1 | 1.23 |
| CCN(CC)CCOc1ccc(C(=C(Cl)c2ccccc2)c2ccccc2)cc1 | -0.708 |
| C[C@]12CC[C@@H]3c4ccc(OS(=O)(=O)O)cc4CC[C@H]3[C@@H]1CCC2=O | 0.916 |
| Clc1cccc(Cl)c1NC1=NCCN1 | 0.932 |
| CC[C@]1(O)C[C@@H]2CN(CCc3c([nH]c4ccccc34)[C@@](C(=O)OC)(c3cc4c(cc3OC)N(C)[C@H]3[C@@](O)(C(=O)OC)[C@H](OC(C)=O)[C@]5(CC)C=CCN6CC[C@]43[C@@H]65)C2)C1 | 1.55 |
| Cc1onc(-c2ccccc2)c1C(=O)N[C@@H]1C(=O)N2[C@@H]1SC(C)(C)[C@@H]2C(=O)O | 1.1 |
| CCOC(=O)CCC(=O)O[C@H]1[C@H](O[C@@H]2[C@@H](C)[C@H](O[C@H]3C[C@@](C)(OC)[C@@H](O)[C@H](C)O3)[C@@H](C)C(=O)O[C@H](CC)[C@@](C)(O)[C@H](O)[C@@H](C)C(=O)[C@H](C)C[C@@]2(C)O)O[C@H](C)C[C@@H]1N(C)C | 1.14 |
| NC(C(=O)O)C(O)C(=O)O (stereo not drawn) [d,l-threo-3-HYDROXYASPARTIC ACID] | 0.534 |
| Cc1cc2c(s1)Nc1ccccc1N=C2N1CCN(C)CC1 | 2.27 |
| CCCSc1ccc2[nH]c(NC(=O)OC)nc2c1 | 1.87 |
| CO[C@@]1(NC(=O)C(C(=O)O)c2ccc(O)cc2)C(=O)N2C(C(=O)O)=C(CSc3nnnn3C)CO[C@@H]21 (some centres not stated) | -0.104 |
| COc1ccccc1OCCNCC(O)COc1cccc2[nH]c3ccccc3c12 (configuration not stated) | 1.8 |
| C=C(NC(=O)C(=C)NC(=O)c1csc(C2=N[C@@H]3c4csc(n4)[C@H]4NC(=O)c5csc(n5)[C@H]([C@](C)(O)[C@@H](C)O)NC(=O)[C@H]5CSC(=N5)/C(=C/C)NC(=O)[C@H]([C@@H](C)O)NC(=O)c5csc(n5)[C@]3(CC2)NC(=O)[C@H](C)NC(=O)C(=C)NC(=O)[C@H](C)NC(=O)[C@H]([C@@H](C)CC)N[C@@H]2C=Cc3c([C@H](C)O)cc(nc3[C@H]2O)C(=O)O[C@@H]4C)n1)C(N)=O | 2.86 |
| CCOC(=O)[C@H](CCc1ccccc1)N[C@@H](C)C(=O)N1[C@H](C(=O)O)C[C@@H]2CCC[C@@H]21 | 1.25 |
| CN1CCC[C@@H]1CCO[C@](C)(c1ccccc1)c1ccc(Cl)cc1 | 1.21 |

— the supplement of paper PMC3741180, “A Novel High Throughput Biochemical Assay to Evaluate the HuR Protein-RNA Complex Formation” (PLoS ONE, 2013)
